Sequences of proteins named here, by UniProt entry; tags and fusion partners are left off.
UniProt Q86WV6, whole entry: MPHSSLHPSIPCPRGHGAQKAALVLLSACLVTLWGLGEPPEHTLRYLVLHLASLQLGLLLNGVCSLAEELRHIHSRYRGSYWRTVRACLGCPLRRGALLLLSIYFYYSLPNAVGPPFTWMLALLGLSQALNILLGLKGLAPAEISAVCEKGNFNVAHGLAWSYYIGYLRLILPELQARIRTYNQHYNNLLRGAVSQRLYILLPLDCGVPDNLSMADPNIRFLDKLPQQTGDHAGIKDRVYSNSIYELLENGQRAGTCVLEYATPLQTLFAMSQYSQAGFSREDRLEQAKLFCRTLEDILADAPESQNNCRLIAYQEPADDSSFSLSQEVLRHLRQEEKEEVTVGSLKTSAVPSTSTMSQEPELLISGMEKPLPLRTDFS

According to patent publication US20220168309A1 (F-STAR THERAPEUTICS, INC., priority 2019, published 2022):

Target: STING (Homo sapiens, UniProt Q86WV6)
Assay: STING antagonist activity, cell-based ISG54 promoter-reporter luciferase measurement of IRF activity (THP-1 dual / RAW-ISG cells)
Details: Antagonist Activity of Exemplary Compounds; cell line and agonist not given
Procedure: THP-1 dual cells (InvivoGen) were cultured under 5% CO2 at 37° C. in RPMI containing 10% fetal bovine serum (FBS), 100 IU mL-1 penicillin and 100 μg mL-1 streptomycin. RAW-ISG cells (InvivoGen) were cultured under 5% CO2 at 37° C. in DMEM containing 10% fetal bovine serum (FBS), 100 IU mL-1 penicillin and 100 μg mL-1 streptomycin. THP-1 dual cells were seeded into the 96 well assay plate on the day of assay whereas RAW cells were seeded into the 96 well assay plate 18 hours before the assay.
(§1) 50,000 cells seeded in a 96-well flat bottom white assay plate were treated with different concentrations (10 uM to 0.01 uM) of compounds for 1 h followed by STING induction with either 30 nM SB 11285 or 10 ug/mL 2′-3′ cGAMP. […] The % inhibition was calculated as 100−{[(luminescence of COI treated well/luminescence of non-COI treated well)/100]×100}. IC50 was calculated by plotting in Xlfit.
as §1, with “1 μM” for “30 nM”, “Xlfit. […]” for “Xlfit.”

Compound | IC50 [µM]
COC(=O)CCCCCCCCCCCCCCCn1c(C)nc2nc(Cl)nc(SC)c21 | 10 to 20
CCCCCCCCCCCCCCCCn1c(C)nc2nc(Cl)nc(N)c21 | 0.001 to 1

The match of structure and compound is tentative.
